Measurements from article PMC3394785.
These are yes or no findings as the source states them, for the method shown. In cells and extracts the contact can be indirect. Some results given as binding are weak or reduced against the parent protein; the word gives no strength. Tags and fused reporters may be left off the sequences shown.

Chains of the proteins cited; added tags and fusions are not shown.
UniProt O46674: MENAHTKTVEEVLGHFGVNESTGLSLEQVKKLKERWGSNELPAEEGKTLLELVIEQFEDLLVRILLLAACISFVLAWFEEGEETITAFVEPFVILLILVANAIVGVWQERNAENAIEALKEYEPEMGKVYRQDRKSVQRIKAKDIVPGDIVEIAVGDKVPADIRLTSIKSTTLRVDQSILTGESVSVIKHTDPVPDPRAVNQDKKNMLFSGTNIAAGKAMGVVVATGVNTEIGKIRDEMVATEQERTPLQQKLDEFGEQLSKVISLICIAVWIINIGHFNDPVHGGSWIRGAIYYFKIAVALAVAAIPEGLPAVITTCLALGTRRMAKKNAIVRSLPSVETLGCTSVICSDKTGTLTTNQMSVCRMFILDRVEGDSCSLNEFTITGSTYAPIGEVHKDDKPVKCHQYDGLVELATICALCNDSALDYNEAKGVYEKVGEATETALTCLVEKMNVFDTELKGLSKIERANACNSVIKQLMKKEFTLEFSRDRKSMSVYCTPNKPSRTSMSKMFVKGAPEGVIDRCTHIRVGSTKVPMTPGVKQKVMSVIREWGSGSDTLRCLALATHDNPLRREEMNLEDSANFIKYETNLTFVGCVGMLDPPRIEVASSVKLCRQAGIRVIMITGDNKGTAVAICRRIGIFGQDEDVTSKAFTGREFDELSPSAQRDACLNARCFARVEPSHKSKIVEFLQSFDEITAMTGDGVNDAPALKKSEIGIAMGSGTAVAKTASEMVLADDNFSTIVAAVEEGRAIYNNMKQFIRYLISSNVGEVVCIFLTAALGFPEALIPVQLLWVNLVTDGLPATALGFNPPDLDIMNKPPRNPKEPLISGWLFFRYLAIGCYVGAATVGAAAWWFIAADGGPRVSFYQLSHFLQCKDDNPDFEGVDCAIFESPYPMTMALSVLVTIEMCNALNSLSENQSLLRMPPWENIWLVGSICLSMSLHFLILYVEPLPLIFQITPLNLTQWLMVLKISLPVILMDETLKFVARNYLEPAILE

Biological target: Cer-SERCA2a (mCerulean fused to the N-terminus of canine SERCA2a) (canine) (UniProt O46674)
Assay: FRET or BRET; intermolecular FRET in live AAV-293 cells, E-FRET (3-cube) method, widefield microscopy; donor Cer-SERCA, acceptor YFP-PLB; FRET against protein expression level

B1: YFP-PLB (phospholamban with a YFP tag) (protein, UniProt P61012 1-52)
chain: MDKVQYLTRSAIRRASTIEMPQQARQNLQNLFINFCLILICLLLICIIVMLL
For B1, which binding is on record?
The binding was “binds”.
